In patent US9850219B1, “Phenothiazine derivatives and methods of use thereof” (Acenda Pharma, Inc., priority 2016, dated 2017):

Columns and labels:
Assay type in all cases: cell-based
H1299 = assay: Cytotoxicity, sulforhodamine B (SRB) assay, H1299; conditions: Homo sapiens, NCI-H1299, H1299, 48 h
Excerpt: (§1) Human non-small cell lung cancer (NSCLC) cell lines (e.g., A549, H441GL and H1299), colon cancer cell lines (e.g., HCT116 and DLD1), breast cancer cell lines (e.g., MCF7 and MDA-MB-231), and pancreatic cancer cell lines (e.g., PANC-1 and SUIT-2) were used in cytotoxicity studies. These NSCLC cell lines have intrinsic resistance to epidermal growth factor receptor (EGFR) inhibitors, e.g., gefitinib. A549 and H441GL are EGFR-wild type adenocarcinoma cell lines. H1299 is an EGFR-wild type large cell carcinoma cell line. HCT116 and DLD1 are metastatic colon cell lines. MCF7 is a hormone-responsive breast cancer cell line. MDA-MB-231 is a triple-negative breast cancer cell line. PANC-1 is a metastatic adenocarcinoma cell line. SUIT-2 is a pancreatic ductal adenocarcinoma cell line. […]
(§2) Cell viability was assessed using the sulforhodamine B (SRB) assay. […] After air-drying, 100 μL of 10 mM Tris base was added to each well and the absorbance was read at 530 nm. Cytotoxicity is expressed as the percent of cells in drug treated wells relative to number of cells in the solvent only control (set to 100%). Each experiment was performed independently in triplicate and cytotoxicity IC50 value of each test compound was calculated from cytotoxicity data obtained at various concentrations.

A549 = assay: Cytotoxicity, sulforhodamine B (SRB) assay, A549; conditions: Homo sapiens, A549, 48 h, NA indicates no activity
Excerpt: as §1, §2

H441GL = assay: Cytotoxicity, sulforhodamine B (SRB) assay, H441GL; conditions: Homo sapiens, 48 h, NA indicates no activity
Excerpt: as §1, §2

## CN1CCN(CCCN2c3ccccc3Sc3ccc(Cl)cc32)CC1 [PCP, prochlorperazine, reference compound]
H1299
  IC50: 28.7 µM
A549
  IC50: 14.6 µM
H441GL
  IC50: 12.9 µM
